Laboratory results as given in patent US20180362558A1, “AQUEOUS CURABLE COMPOSITION AND WATER-SOLUBLE PHOTOPOLYMERIZATION INITIATOR” (FUJIFILM CORPORATION, priority 2016, published 2018).
Some compounds share one wording; it may come from a single statement.

Legend:
[1] = Evaluation of curing properties (sensitivity evaluation): rubbing of the UV-cured printed image; set-up: key: A: The image on the printed surface was not separated.; B: The image on the printed surface was slightly separated.; C: The image on the printed surface was separated at a practically unacceptable level
[2] = Evaluation of discharge performance: ink jet nozzle ejection after standing time
[3] = aqueous magenta ink: initiator 5 mass %, N-[Tris(3-acrylamidopropoxymethyl)methyl]acrylamide 10 mass %, N,N′-Methylenebis(acrylamide) 10 mass %, UV 600 mJ/cm^2
[4] = aqueous magenta ink: initiator 5 mass %, N-[Tris(3-acrylamidopropoxymethyl)methyl]acrylamide 10 mass %, N,N′-Methylenebis(acrylamide) 10 mass %
[5] = Example 31: initiator 0.1 part by mass, N-[Tris(3-acrylamidopropoxymethyl)methyl]acrylamide 10, N,N′-Methylenebis(acrylamide) 10
[6] = Example 32: initiator 1 part by mass, N-[Tris(3-acrylamidopropoxymethyl)methyl]acrylamide 10, N,N′-Methylenebis(acrylamide) 10
[7] = Example 33: initiator 3 part by mass, N-[Tris(3-acrylamidopropoxymethyl)methyl]acrylamide 10, N,N′-Methylenebis(acrylamide) 10
[8] = Example 34: initiator 10 part by mass, N-[Tris(3-acrylamidopropoxymethyl)methyl]acrylamide 10, N,N′-Methylenebis(acrylamide) 10
[9] = Example 35: initiator 5 part by mass, N-[Tris(3-acrylamidopropoxymethyl)methyl]acrylamide 3, N,N′-Methylenebis(acrylamide) 3
[10] = Example 36: initiator 5 part by mass, N-[Tris(3-acrylamidopropoxymethyl)methyl]acrylamide 5, N,N′-Methylenebis(acrylamide) 5
[11] = Example 37: initiator 5 part by mass, N-[Tris(3-acrylaminopropoxymethyl)methyl]acrylamide 20, N,N′-Methylenebis(acrylamide) 20
[12] = Examples 38 to 40: initiator 5 part by mass, Blemmer ADE400A 10, acryloylmorpholine 10

Structure (SMILES) | Sensitivity [1, 3] | Discharge performance [2, 4] | further results
Cc1cc(C)c(C(=O)P(=O)(c2ccccc2)c2ccccc2)c(C)c1COCC(=O)O [Comparative compound 1, reference compound] | B | C (At a standing time of shorter than 20 minutes, some nozzles cannot eject droplets.) | –
CC[N+](CC)(CC)CC(=O)c1c(C)cc(C)c(C(=O)P(=O)(c2ccccc2)c2ccccc2)c1C.[Cl-] [Compound A-1] | A | A (At a standing time of 30 minutes or longer and shorter than 45 minutes, some nozzles cannot eject droplets.) | Sensitivity [1, 5]: B; Sensitivity [1, 6]: B; Sensitivity [1, 7]: A; Sensitivity [1, 8]: A; Sensitivity [1, 9]: B; Sensitivity [1, 10]: A; Sensitivity [1, 11]: A; Sensitivity [1, 12]: A; Discharge performance [2, 5]: A (At a standing time of 30 minutes or longer and shorter than 45 minutes, some nozzles cannot eject droplets.); Discharge performance [2, 6]: A (At a standing time of 30 minutes or longer and shorter than 45 minutes, some nozzles cannot eject droplets.); Discharge performance [2, 7]: A (At a standing time of 30 minutes or longer and shorter than 45 minutes, some nozzles cannot eject droplets.); Discharge performance [2, 8]: A (At a standing time of 30 minutes or longer and shorter than 45 minutes, some nozzles cannot eject droplets.); Discharge performance [2, 9]: A (At a standing time of 30 minutes or longer and shorter than 45 minutes, some nozzles cannot eject droplets.); Discharge performance [2, 10]: A (At a standing time of 30 minutes or longer and shorter than 45 minutes, some nozzles cannot eject droplets.); Discharge performance [2, 11]: B (At a standing time of 20 minutes or longer and shorter than 30 minutes, some nozzles cannot eject droplets.); Discharge performance [2, 12]: A (At a standing time of 30 minutes or longer and shorter than 45 minutes, some nozzles cannot eject droplets.)
CC[N+](CC)(CC)CC(=O)c1c(C)cc(C)c(C(=O)P(=O)(c2ccccc2)c2ccccc2)c1C.[I-] [Compound A-3] | A | A (At a standing time of 30 minutes or longer and shorter than 45 minutes, some nozzles cannot eject droplets.) | Sensitivity [1, 12]: A; Discharge performance [2, 12]: A (At a standing time of 30 minutes or longer and shorter than 45 minutes, some nozzles cannot eject droplets.)
C=CC(=O)[O-].Cc1cc(C)c(C(=O)P(=O)(c2ccccc2)c2ccccc2)c(C)c1C(=O)C[N+](C)(C)C [Compound A-7] | A | A (At a standing time of 30 minutes or longer and shorter than 45 minutes, some nozzles cannot eject droplets.) | –
Cc1cc(C)c(C(=O)P(=O)(c2ccccc2)c2ccccc2)c(C)c1C(=O)C[N+](C)(C)Cc1ccccc1.[Cl-] [Compound A-8] | A | A (At a standing time of 30 minutes or longer and shorter than 45 minutes, some nozzles cannot eject droplets.) | –
Cc1cc(C)c(C(=O)P(=O)(c2ccccc2)c2ccccc2)c(C)c1C(=O)C[N+](C)(C)Cc1ccccc1.[Br-] [Compound A-9] | A | A (At a standing time of 30 minutes or longer and shorter than 45 minutes, some nozzles cannot eject droplets.) | –
Cc1cc(C)c(C(=O)P(=O)(c2ccccc2)c2ccccc2)c(C)c1C(=O)C[N+](C)(C)Cc1ccccc1.[I-] [Compound A-10] | A | A (At a standing time of 30 minutes or longer and shorter than 45 minutes, some nozzles cannot eject droplets.) | –
Cc1cc(C)c(C(=O)P(=O)(c2ccccc2)c2ccccc2)c(C)c1C(=O)COCCS(=O)(=O)[O-].[Na+] [Compound A-11] | A | A (At a standing time of 30 minutes or longer and shorter than 45 minutes, some nozzles cannot eject droplets.) | –
Cc1cc(C)c(C(=O)P(=O)(c2ccccc2)c2ccccc2)c(C)c1C(=O)COCCCS(=O)(=O)[O-].[Na+] [Compound A-13] | A | A (At a standing time of 30 minutes or longer and shorter than 45 minutes, some nozzles cannot eject droplets.) | –
Cc1cc(C)c(C(=O)P(=O)(c2ccccc2)c2ccccc2)c(C)c1C(=O)COCCCS(=O)(=O)[O-].[K+] [Compound A-14] | A | A (At a standing time of 30 minutes or longer and shorter than 45 minutes, some nozzles cannot eject droplets.) | –
Cc1cc(C)c(C(=O)P(=O)(c2ccccc2)c2ccccc2)c(C)c1C(=O)COC(=O)CCC(=O)[O-].[Na+] [Compound A-17] | A | A (At a standing time of 30 minutes or longer and shorter than 45 minutes, some nozzles cannot eject droplets.) | –
Cc1cc(C)c(C(=O)P(=O)(c2ccccc2)c2ccccc2)c(C)c1C(=O)COC(=O)CCC(=O)[O-].[K+] [Compound A-18] | A | A (At a standing time of 30 minutes or longer and shorter than 45 minutes, some nozzles cannot eject droplets.) | –
CC[N+](CC)(CC)CC(=O)c1c(C)cc(C)c(C(=O)P(=O)(C(=O)c2c(C)cc(C)c(C(=O)C[N+](CC)(CC)CC)c2C)c2ccccc2)c1C.[Cl-].[Cl-] [Compound A-23] | A | A (At a standing time of 30 minutes or longer and shorter than 45 minutes, some nozzles cannot eject droplets.) | –
CC[N+](CC)(CC)CC(=O)c1c(C)cc(C)c(C(=O)P(=O)(C(=O)c2c(C)cc(C)c(C(=O)C[N+](CC)(CC)CC)c2C)c2ccccc2)c1C.[I-].[I-] [Compound A-25] | A | A (At a standing time of 30 minutes or longer and shorter than 45 minutes, some nozzles cannot eject droplets.) | –
CC(C)(O)C(=O)c1ccc(OCCO)cc1 [IRGACURE 2959, reference compound] | C | A (At a standing time of 30 minutes or longer and shorter than 45 minutes, some nozzles cannot eject droplets.) | –
